Reference: PubChem BioAssay AID1259424 (University of Nebraska Medical Center, 2018)

- Test: 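Seek colon cancer survival genes behaving like KSR1, using a six-gene signature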 (primary screen)
- Cell system: human HCT116 colon cancer cells
- Knock-down reagent: siRNA pool against human genes, 50 nM
- Measurement: 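Log2 levels of six mRNAs (branched-DNA multiplex), adjusted by two reference genes and the non-targeting median, then scored against the average KSR1 knockdown pattern as Pearson r and euclidean distance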
- Scale: mean correlation with KSR1 profile and KSR1 correlation: higher = expression change more like KSR1 knockdown; mean distance from KSR1 profile: higher = expression change less like KSR1 knockdown
This is an unselected part of about 14,000 deposited reagents. 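Higher correlation or smaller distance means closer resemblance to KSR1 loss; control wells, including KSR1 knockdowns, recur on many plates.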 Further read-outs or replicates are left out here. No sequences are given here. Not stated in the record: the time to read-out.

| gene knocked down | mean correlation with KSR1 profile | mean distance from KSR1 profile | KSR1 correlation, replicate 1 | KSR1 correlation, replicate 2 |
| --- | --- | --- | --- | --- |
| AURKAIP1 (aurora kinase A interacting protein 1) | -0.243 | 1.28 | -0.431 | 0.122 |
| TMEM59 (transmembrane protein 59) | -0.386 | 1.49 | -0.359 | -0.243 |
| ZNF552 (zinc finger protein 552) | 0.282 | 2.13 | 0.45 | 0.325 |
| PSPHP1 (phosphoserine phosphatase pseudogene 1) | -0.323 | 1.42 | -0.332 | -0.551 |
| GET1 (guided entry of tail-anchored proteins factor 1) | -0.0648 | 2.63 | -0.147 | 0.137 |
| FOXD4 (forkhead box D4) | -0.367 | 3.33 | -0.421 | -0.24 |
| ABTB1 (ankyrin repeat and BTB domain containing 1) | 0.65 | 1.97 | 0.662 | 0.734 |
| RCC1 (regulator of chromosome condensation 1) | -0.0868 | 3.71 | -0.261 | 0.0749 |
| MGAM (maltase-glucoamylase) | 0.113 | 2.33 | 0.057 | -0.214 |
| SLCO5A1 | 0.551 | 1.33 | 0.394 | 0.53 |
| TCEAL1 (transcription elongation factor A like 1) | -0.366 | 3.25 | -0.0482 | -0.119 |
| PRDX2 (peroxiredoxin 2) | 0.217 | 1.89 | 0.301 | 0.154 |
| NEDD4 (NEDD4 E3 ubiquitin protein ligase) | 0.131 | 1.23 | -0.105 | -0.098 |
| LARS2 (leucyl-tRNA synthetase 2, mitochondrial) | -0.17 | 2.35 | 0.0867 | -0.102 |
| AXL (AXL receptor tyrosine kinase) | -0.0887 | 2.24 | -0.168 | -0.00799 |
| RSPH6A (radial spoke head 6 homolog A) | 0.785 | 1.51 | 0.7 | 0.766 |
| SELENOK (selenoprotein K) | -0.106 | 1.46 | -0.167 | -0.073 |
| THUMPD1 (THUMP domain 1 NAT10 acetyltransferase adaptor) | -0.467 | 1.69 | -0.288 | -0.633 |
| RCAN1 (regulator of calcineurin 1) | -0.432 | 4.25 | -0.516 | -0.53 |
| AP3M1 (adaptor related protein complex 3 subunit mu 1) | 0.00391 | 1.14 | -0.267 | -0.376 |
| SLC16A5 | -0.69 | 3.44 | -0.735 | -0.664 |
| HIVEP3 (HIVEP zinc finger 3) | 0.0615 | 2.57 | -0.0216 | 0.0892 |
| SNRPD3 (small nuclear ribonucleoprotein D3 polypeptide) | -0.402 | 2.98 | -0.643 | -0.199 |
| DGAT2 (diacylglycerol O-acyltransferase 2) | -0.556 | 2.9 | -0.516 | -0.415 |
| CUTA (cutA divalent cation tolerance homolog) | -0.0477 | 3.29 | 0.0988 | -0.0651 |
| C2CD2L (C2CD2 like) | -0.18 | 2.54 | -0.0993 | -0.394 |
| KIF13B (kinesin family member 13B) | 0.407 | 1.23 | 0.706 | 0.558 |
| CDR2L (cerebellar degeneration related protein 2 like) | 0.816 | 1.57 | 0.802 | 0.704 |
| FLNA (filamin A) | 0.591 | 3.08 | 0.6 | 0.534 |
| EXD2 (exonuclease 3'-5' domain containing 2) | -0.923 | 2.3 | -0.791 | -0.868 |
| TOX4 (TOX high mobility group box family member 4) | -0.245 | 1.61 | -0.347 | -0.262 |
| AQP3 (aquaporin 3 (Gill blood group)) | -0.256 | 1.9 | -0.413 | -0.141 |
| TEAD4 (TEA domain transcription factor 4) | -0.303 | 1.81 | -0.564 | -0.00881 |
| RGL2 (ral guanine nucleotide dissociation stimulator like 2) | -0.361 | 2.26 | -0.211 | -0.316 |

2 entries from above in another layout:
gene knocked down | mean correlation with KSR1 profile | mean distance from KSR1 profile | KSR1 correlation, replicate 1 | KSR1 correlation, replicate 2
SLCO5A1 | 0.551 | 1.33 | 0.394 | 0.53
TCEAL1 (transcription elongation factor A like 1) | -0.366 | 3.25 | -0.0482 | -0.119
